Data: publication PMC3416671
No constants are given. Whether binding was seen depends on the method and setting. In cells and extracts the contact can be indirect. Some results given as binding are weak or reduced against the parent protein; the word gives no strength.

Molecular target: T1, endogenous RNF11 (murine primary cortical neurons) (mouse (endogenous in primary cortical neurons)) (UniProt Q9QYK7)
T1 sequence: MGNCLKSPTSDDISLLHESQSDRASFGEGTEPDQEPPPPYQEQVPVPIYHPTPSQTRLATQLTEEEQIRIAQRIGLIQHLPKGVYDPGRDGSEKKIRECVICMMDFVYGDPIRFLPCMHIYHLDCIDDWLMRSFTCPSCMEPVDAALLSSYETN
Experiment: co-IP; lysates of murine primary cortical neurons stimulated with 10 ng/ml TNF-α for 0 or 30 minutes; IP with RNF11 antibody; control IP with antibody omitted; immunoblot with anti-A20 and Itch; densitometry normalised to input, 0 minutes set at 100%

binding: binds
B1: endogenous A20 (murine primary cortical neurons) (protein, UniProt Q60769 1-775)
chain: MAEQLLPQALYLSNMRKAVKIRERTPEDIFKPTNGIIYHFKTMHRYTLEMFRTCQFCPQFREIIHKALIDRSVQASLESQKKLNWCREVRKLVALKTNGDGNCLMHAACQYMWGVQDTDLVLRKALCSTLKETDTRNFKFRWQLESLKSQEFVETGLCYDTRNWNDEWDNLVKMASADTPAARSGLQYNSLEEIHIFVLSNILRRPIIVISDKMLRSLESGSNFAPLKVGGIYLPLHWPAQECYRYPIVLGYDSQHFVPLVTLKDSGPELRAVPLVNRDRGRFEDLKVHFLTDPENEMKEKLLKEYLIVMEIPVQGWDHGTTHLINAAKLDEANLPKEINLVDDYFELVQHEYKKWQENSDQARRAAHAQNPLEPSTPQLSLMDIKCETPNCPFFMSVNTQPLCHECSERRQKNQSKLPKLNSKLGPEGLPGVGLGSSNWSPEETAGGPHSAPPTAPSLFLFSETTAMKCRSPGCPFTLNVQHNGFCERCHARQINASHTADPGKCQACLQDVTRTFNGICSTCFKRTTAEPSSSLTSSIPASCHQRSKSDPSQLIQSLTPHSCHRTGNVSPSGCLSQAARTPGDRAGTSKCRKAGCMYFGTPENKGFCTLCFIEYRENKQSVTASEKAGSPAPRFQNNVPCLGRECGTLGSTMFEGYCQKCFIEAQNQRFHEARRTEEQLRSSQHRDMPRTTQVASRLKCARASCKNILACRSEELCMECQHLSQRVGSVAHRGEPTPEEPPKQRCRAPACDHFGNAKCNGYCNECYQFKQMYG
